In the supplement of paper PMC6411743:
± gives the standard deviation of the averaged measurements. The list shows a part of the results, in another mix than the full data. Small differences around the control level are noise.

Protein sequences, listed by entry. Tags and fused reporters are not part of them.
UniProt P54709, whole entry: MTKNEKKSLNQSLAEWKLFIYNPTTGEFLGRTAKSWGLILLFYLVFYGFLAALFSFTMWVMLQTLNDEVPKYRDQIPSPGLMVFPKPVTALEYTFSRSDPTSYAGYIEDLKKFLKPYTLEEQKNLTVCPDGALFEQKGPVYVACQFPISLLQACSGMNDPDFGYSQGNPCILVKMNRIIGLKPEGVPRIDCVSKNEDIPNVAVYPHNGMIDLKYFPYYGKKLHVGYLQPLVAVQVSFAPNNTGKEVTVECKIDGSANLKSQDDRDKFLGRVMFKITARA

Target: ATP1B3 (UniProt P54709)
Assay: NP40-soluble protein abundance relative to vehicle (solubility fold change) (ratio); higher = more soluble protein in presence of ATP
Summary of the method: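 Jurkat crude lysate (Dounce-homogenised) was treated with eight concentrations from 0.1 to 10 mM for 10 min at room temperature, then 3 min at 37 °C. It was solubilised with 0.8% NP40 and benzonase (60 min, 4 °C) and ultracentrifuged, and the supernatant was TMT-labelled for LC-MS/MS. Intensities were vsn-normalised, and the value is the fold change against the NP40-processed vehicle per replicate, from three independent experiments.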

Nc1ncnc2c1ncn2[C@@H]1O[C@H](COP(=O)(O)OP(=O)(O)OP(=O)(O)O)[C@@H](O)[C@H]1O [adenosine triphosphate]
NP40-soluble protein abundance (concentration: 0.1mM): 0.995 ± 0.069
NP40-soluble protein abundance (concentration: 0.5mM): 0.969 ± 0.02
